Assay [1] deals with T1, full length human Dsg3 tagged with the c-myc epitope (hDsg3.myc) (human) (UniProt P32926).
T1 sequence: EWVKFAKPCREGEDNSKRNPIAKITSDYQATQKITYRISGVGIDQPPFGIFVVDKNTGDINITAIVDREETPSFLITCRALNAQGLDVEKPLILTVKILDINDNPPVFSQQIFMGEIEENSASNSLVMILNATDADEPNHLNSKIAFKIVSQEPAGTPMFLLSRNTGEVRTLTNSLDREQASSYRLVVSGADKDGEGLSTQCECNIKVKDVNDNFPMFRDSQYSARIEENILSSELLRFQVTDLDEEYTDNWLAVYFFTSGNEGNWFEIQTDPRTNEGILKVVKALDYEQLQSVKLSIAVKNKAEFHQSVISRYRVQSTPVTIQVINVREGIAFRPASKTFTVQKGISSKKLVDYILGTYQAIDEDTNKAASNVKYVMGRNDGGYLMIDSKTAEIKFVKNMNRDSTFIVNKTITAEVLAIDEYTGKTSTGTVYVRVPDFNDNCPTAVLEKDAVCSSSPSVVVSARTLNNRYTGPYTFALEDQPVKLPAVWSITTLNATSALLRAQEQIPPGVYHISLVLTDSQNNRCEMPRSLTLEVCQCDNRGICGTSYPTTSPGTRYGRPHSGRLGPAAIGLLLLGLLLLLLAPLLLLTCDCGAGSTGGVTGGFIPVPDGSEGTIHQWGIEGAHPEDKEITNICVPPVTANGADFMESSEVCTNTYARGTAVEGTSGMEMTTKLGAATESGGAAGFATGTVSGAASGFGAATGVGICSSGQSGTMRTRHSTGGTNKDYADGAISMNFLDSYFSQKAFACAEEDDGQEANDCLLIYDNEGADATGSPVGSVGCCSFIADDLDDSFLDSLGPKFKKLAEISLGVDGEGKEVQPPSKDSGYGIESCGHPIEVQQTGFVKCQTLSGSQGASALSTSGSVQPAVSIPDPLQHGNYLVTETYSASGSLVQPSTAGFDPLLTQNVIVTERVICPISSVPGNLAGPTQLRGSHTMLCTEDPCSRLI
The assay can be described thus: co-IP; RIPA lysates of A431 stable lines (empty vector control V and hDsg3.myc D3); antibodies (anti-myc, anti-Dsg3 5H10 or anti-E-cadherin HECD-1) coupled to Dynabeads, overnight at 4°C; Western blot. For orientation: In western blotting, separated proteins are transferred to a membrane and probed.

By UniProt entry, the sequences of proteins in these tests, tags left out.
UniProt P35222: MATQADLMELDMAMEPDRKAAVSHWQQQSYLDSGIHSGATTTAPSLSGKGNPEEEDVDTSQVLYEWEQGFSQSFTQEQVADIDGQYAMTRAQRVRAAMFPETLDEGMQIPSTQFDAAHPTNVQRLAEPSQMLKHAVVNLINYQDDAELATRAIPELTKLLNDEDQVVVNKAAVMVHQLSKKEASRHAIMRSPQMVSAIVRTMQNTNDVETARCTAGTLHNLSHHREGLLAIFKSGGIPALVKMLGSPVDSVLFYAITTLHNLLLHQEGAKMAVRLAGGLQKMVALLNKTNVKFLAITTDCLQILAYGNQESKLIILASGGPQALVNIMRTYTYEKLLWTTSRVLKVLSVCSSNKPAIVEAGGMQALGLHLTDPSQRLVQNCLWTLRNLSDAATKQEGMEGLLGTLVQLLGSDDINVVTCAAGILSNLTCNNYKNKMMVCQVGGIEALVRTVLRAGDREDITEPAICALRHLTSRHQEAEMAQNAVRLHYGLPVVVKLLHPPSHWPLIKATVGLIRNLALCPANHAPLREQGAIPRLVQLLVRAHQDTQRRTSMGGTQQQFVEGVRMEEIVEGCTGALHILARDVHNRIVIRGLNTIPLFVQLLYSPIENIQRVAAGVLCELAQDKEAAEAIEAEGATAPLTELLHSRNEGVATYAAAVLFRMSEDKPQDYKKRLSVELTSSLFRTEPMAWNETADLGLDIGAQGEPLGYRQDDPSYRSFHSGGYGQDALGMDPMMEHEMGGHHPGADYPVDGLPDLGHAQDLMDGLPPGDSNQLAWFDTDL

The target in assay [2] is T2, endogenous Desmoglein 3 (Dsg3) (human (endogenous in A431 and HaCaT)) (UniProt P32926).
T2 sequence: T1 sequence
The assay is described as above.

Data on one substance can be found in article PMC2997060.

No constants are given. Whether binding was seen depends on the method and setting. Binding seen in cells or lysates may run through a third protein. Some results given as binding are weak or reduced against the parent protein; the word gives no strength. For some assays here: Where a sequence is shown, tags or fusion partners need not be part of it.

On to β-catenin (from UniProt P35222 1-781), for which the binding result in assay [1] and in assay [2] was “binds” throughout.
